We go through 39 molecules from PubChem BioAssay AID2685 (National Center for Advancing Translational Sciences (NCATS), 2010).

Some of the results follow. The main result of the screen is listed elsewhere. These columns were measured beside it and carry no call. Compounds called inactive in the main read-out are mostly missing here. Potencies come from curve fits of mixed quality, noted in brackets.

The nature of the test: qHTS Assay for Lipid Storage Modulators in Drosophila S3 Cells.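 For cell number change: cells counted by Cell Tracker Red CMTPX staining in the red channel.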 The note with it: BODIPY lipid droplet fluorescence, 18-24 h; for cell number change: measured here: cell count max response, cells fed with added oleic acid. A digest of the protocol: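 Laser-scanning cytometry quantifies lipid droplet accumulation (500–530 nm total intensity; droplet/cell object ratio) in oleic acid-fed (400 uM added) Drosophila S3 cells treated with a concentration series. 20 uM Triacsin C defined 100% inhibition.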

The mark [1] stands for this setting: measured here: lipid fluorescence (Fed channel) AC50, cells fed with added oleic acid.
Where [2] appears, read: measured here: cell number channel AC50, cells fed with added oleic acid.

A word on the AC50: it is the concentration giving half of the maximal activity seen. Lower therefore signals greater potency. Consider `O=c1cc(O)nc(SCc2ccccc2)n1-c1ccc(F)cc1`, for which the cell number change is -6.96%. The AC50 under setting [1] is 116 nM [falling, full curve, poor fit].
As to `Cc1cccc(NS(=O)(=O)c2cc3c(cc2C)N(C)CCO3)c1`, the cell number change was determined as 10.4%.
For `CNC(=O)c1ccc2nc(NC(C)=O)sc2c1`, the cell number change is -59.8%. In addition, under setting [2], the AC50 was 23100 nM [falling, partial curve].
With `O=C(C1CCCO1)N1CCN(C(=S)Nc2ccc(Cl)cc2Cl)CC1` (stereo unspecified), the cell number change amounted to 13.6%. For the same molecule, the AC50 under setting [2] was 146 nM [falling, full curve, poor fit]. Further, the AC50 under setting [1] was 2310 nM [rising, partial curve, poor fit].
Take `Cc1cc(O)c(/C=N/OCc2ccc(Cl)cc2Cl)c(=O)o1`: the cell number change was found to be 30.2%.
In the case of `CCC/C(O)=C1\C(=O)CCCC1=NCCc1c(C)[nH]c2ccc(C)cc12`, the cell number change was found to be 11%. In addition, the AC50 under setting [1] is 130 nM [rising, full curve, poor fit].
Turning to `Nc1ccc(S(=O)(=O)Nc2ccc(S(N)(=O)=O)cc2)cc1`, the cell number change is -5.68%. Under setting [1], the AC50 was 130 nM [falling, full curve, poor fit].
Take `CCCCCCc1cc2cc(C(=O)OCC)c(=O)oc2cc1O`: the cell number change is -16.9%. Moreover, under setting [1], the AC50 was 130 nM [falling, full curve, poor fit].
With `Cc1c(C(=O)NCCSc2ccc(Cl)cc2)cccc1[N+](=O)[O-]`, the cell number change is -20.3%. The AC50 under setting [1] is 16400 nM [rising, single point].
In the case of `O=C(NC(=S)Nc1ccccc1C(F)(F)F)c1ccccc1F`, the cell number change was -46.1%.
As for `O=C(NCCC1=CCCCC1)C(=O)NCC(c1ccco1)N1CCN(c2ccccc2F)CC1` (stereo unspecified), the cell number change was -12.2%. The concentration at half-maximal activity (AC50) under setting [1] was 4110 nM [rising, partial curve, poor fit].
With `CN(C)c1ccc(C(=O)NCC(c2cccs2)N2CCOCC2)cc1[N+](=O)[O-]` (stereo unspecified), the AC50 under setting [1] is 3260 nM [rising, single point].
As to `CC(=O)Oc1c(S(=O)(=O)c2ccccc2)c(C)nn1C(C)(C)C`, the cell number change is -49.2%. Moreover, under setting [2], the AC50 was 16400 nM [falling, partial curve]. Under setting [1], the AC50 is 16400 nM [falling, partial curve].
As for `COC(=O)[C@H](CC(C)C)NS(=O)(=O)N(Cc1ccccc1)[C@@H](CC(C)C)C(=O)OC`, the cell number change was -9.27%. Further, the AC50 under setting [2] was 1640 nM [falling, partial curve]. For the same molecule, the concentration at half-maximal activity (AC50) under setting [1] was 1840 nM [falling, partial curve].
As to `O=C1c2cccnc2C(=O)N1Cc1ccc(Cl)cc1`, the cell number change is -14.6%. The AC50 under setting [1] was 130 nM [falling, full curve, poor fit].
On to `CCOC(=O)C1(CCOc2ccccc2)CCN(Cc2ccc3c(c2)OCCO3)CC1`, for which the cell number change was -27.9%. In addition, the AC50 under setting [1] is 29100 nM [falling, single point].
With `O=C(O)c1cccc(NC(=O)c2cc(-c3cccc(Cl)c3)nc3ccccc23)c1`, the cell number change is 1.85%. For the same molecule, under setting [2], the AC50 is 3260 nM [falling, single point]. In addition, the AC50 under setting [1] was 6510 nM [falling, single point].
Turning to `COC(=O)c1c(C)nc2c(c(SC)nn2-c2ccccc2)c1N`, the cell number change is -27.6%.
`CC(=O)N1CCC(C(=O)Nc2ccc3c(c2)CCC3)CC1`: under setting [1], the AC50 is 651 nM [rising, single point].
Consider `CCCOc1ccc([C@@H]2C3CN(C(=O)OCC)CC=C3C(C#N)=C(N)C2(C#N)C#N)cc1OC` (stereo partly specified), for which the cell number change was determined as 69.5%. Also, under setting [2], the AC50 is 1030 nM [rising, full curve]. Besides, the AC50 under setting [1] is 920 nM [rising, partial curve].
`Cc1cc(S(=O)(=O)N2CCCOC2CNC(=O)C(=O)NCCCN2CCOCC2)ccc1F` (stereo unspecified): the cell number change amounted to 13.5%. In addition, under setting [1], the AC50 is 1640 nM [rising, partial curve].
In the case of `COc1ccc(N(CC(=O)NCCSc2ccccn2)S(C)(=O)=O)cc1Cl`, the cell number change was 0.323%. Moreover, the AC50 under setting [1] was 14600 nM [rising, single point].
On to `CN(CC(=O)Nc1ccc(Cl)c(Cl)c1)C(=O)c1cccc2cccnc12`, for which the cell number change was -1.35%. The AC50 under setting [1] is 16400 nM [falling, single point].
`CC(C)(C)NC(=O)c1cccc(NC(=O)c2ccc(NC(=O)c3ccco3)cc2)c1`: the cell number change is -23.8%.
On to `O=C(Cc1cccs1)Nc1nncs1`, for which, under setting [1], the AC50 is 231 nM [falling, full curve].
For the molecule `c1cc2c(cc1C1=Nn3c(nnc3C3CCCCC3)SC1)OCO2`, the AC50 was 6.51 nM [rising, full curve, poor fit] under setting [2] and 4.61 nM [rising, full curve, poor fit] under setting [1].
As to `O=C(CCC(=O)N(CC(=O)NC1CCCCC1)c1ccc(F)cc1)Nc1nccs1`, the cell number change amounted to 14.8%. Further, the AC50 under setting [1] was 6510 nM [falling, single point].
As to `CC(=O)NNc1cc(N2CCOCC2)nc(N2CCOCC2)n1`, the cell number change was determined as 13.1%.
As for `Cc1noc(C)c1C(=O)N(CC(=O)NC1CCCC1)Cc1ccccc1F`, the cell number change is -54.1%. For the same molecule, the AC50 under setting [2] was 1030 nM [falling, partial curve]. Besides, the AC50 under setting [1] is 1840 nM [falling, partial curve].
For `O=C1c2ccccc2C(=O)C1c1ccccc1F`, the cell number change turned out to be 15.3%.
On to `S=C(Nc1ccc(Cl)cc1Cl)Nn1cnnc1`, for which the cell number change came out at 2.93%. In addition, under setting [2], the AC50 was 366 nM [rising, full curve, poor fit]. Further, the AC50 under setting [1] is 291 nM [rising, full curve, poor fit].
For the molecule `COC(=O)c1sc(S(=O)(=O)NCCC(=O)O)c(C(=O)OC)c1C`, the cell number change stood at 50.2%.
As for `Cc1cc2oc(=O)cc(CSc3nc(N)cc(N)n3)c2cc1C`, the cell number change amounted to 80.3%. Under setting [2], the AC50 was 2310 nM [rising, full curve]. For the same molecule, under setting [1], the AC50 is 2310 nM [rising, partial curve].
For the molecule `Cc1cc(-c2csc(N)n2)c(C)n1CCC(C)C`, the cell number change came to 35.4%. Moreover, under setting [2], the AC50 is 8200 nM [rising, partial curve, poor fit]. In addition, under setting [1], the AC50 is 6510 nM [falling, single point].
Turning to `O=c1oc(-c2ccccc2NS(=O)(=O)c2ccccc2)nc2ccccc12`, the cell number change was 31.7%. In addition, under setting [2], the AC50 was 920 nM [rising, full curve, poor fit]. Further, the AC50 under setting [1] was 366 nM [rising, partial curve].
Regarding `O=C(NCCC1=CCCCC1)C1CCCN(S(=O)(=O)c2cccc3cccnc23)C1` (stereo unspecified), the cell number change is -2.28%.
For `Nc1cccnc1Oc1ccc(F)cc1`, the cell number change turned out to be 36.7%. The AC50 under setting [2] is 5.8 nM [rising, full curve, poor fit].
For `O=C(CN1CCc2cc3c(cc2C1)OCCCO3)Nc1c(F)cccc1F`, the cell number change is -2.65%.
Turning to `NC(=O)C1CCN(Cc2nc3c(Br)cc(Br)cc3c(=O)[nH]2)CC1`, the cell number change amounted to 60.4%. In addition, the AC50 under setting [2] is 18400 nM [rising, single point]. The AC50 under setting [1] was 29100 nM [rising, single point].
